Source: patent publication US8034817B2, “Treatment of bacterial diseases of the respiratory organs” (Bayer Pharma Aktiengesellschaft, priority 2003, dated 2011)
Read-outs that look alike come from different tables or passages of the source.

Details: for Lung concentration: 0.25 h, average for 3 animals; for AUC / Cmax: lungs
[1] = rats, 7.5 mg/kg intratracheally as suspension, 7.5 mg/kg
[2] = intratracheal administration, 7.5 mg/kg, rats
[3] = rats, 7.5 mg/kg intratracheally as solution
[4] = rats, 7.5 mg/kg intravenously as solution

Compound | Lung concentration (7.5 mg/kg intratracheally as suspension, 7.5 mg/kg) [µg/mL] | AUC [1] [ng·h/mL] | Cmax [1] [ng/mL] | AUC (lungs), factor compared with intravenous administration of ciprofloxacin hydrochloride [2] | Cmax (lungs), factor compared with intravenous administration of ciprofloxacin hydrochloride [2] | Lung concentration (7.5 mg/kg intratracheally as solution) [µg/mL] | AUC [3] [ng·h/mL] | Cmax [3] [ng/mL] | AUC [4] [ng·h/mL] | Cmax [4] [ng/mL]
O=C(O)c1cn(C2CC2)c2cc(N3CCNCC3)c(F)cc2c1=O [ciprofloxacin betaine (laboratory product)] | 49.1 | 124000 | 49100 |  |  |  |  |  |  | 
O=C(O)c1cn(C2CC2)c2cc(N3CCNCC3)c(F)cc2c1=O [ciprofloxacin betaine (micronized), ciprofloxacin betaine] |  | 304000 | 76000 | 612 | 125 |  |  |  |  | 
Cl.O=C(O)c1cn(C2CC2)c2cc(N3CCNCC3)c(F)cc2c1=O [ciprofloxacin hydrochloride] |  |  |  |  |  | 6.65 | 3200 | 6650 | 497 | 610
